Some of the results follow.
Columns and labels:
Assay in all cases: log2 fold change, soluble protein after heating vs DMSO (PISA); higher = thermal stabilisation; K562 cells, 10 uM, 30 min; active = over 0.2 and 3.5 SD of the protein, either way, in both replicates (recomputed)
[1] = compound: C1=CC=C(C=C1)[C@H](COC2=CC3=C(C=C2)NC(=O)N3)NC(=O)C4=CC=CN(C4=O)CC5=CC(=C(C=C5)F)F
Summary of the method: (§1)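 Values are thermal stability changes relative to control samples and are taken from duplicates. They are stated as log2 fold changes. Before quantification by TMTpro 16plex LC-MS/MS with equalised channel sums, K562 cells at 2×10^6 cells/mL were treated with 10 μM compound for 30 min, heated in aliquots for 3 min across 48°C-58°C, pooled, extracted in PBS with 0.5% NP-40 at 4°C, and centrifuged at 21,000xg for 90 min to give the soluble supernatant.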

By UniProt entry, the sequences of proteins in these tests, tags left out. Where a name states a change or a piece, a line headed by the entry shows the natural chain unless it says otherwise.
UniProt Q6P3S1: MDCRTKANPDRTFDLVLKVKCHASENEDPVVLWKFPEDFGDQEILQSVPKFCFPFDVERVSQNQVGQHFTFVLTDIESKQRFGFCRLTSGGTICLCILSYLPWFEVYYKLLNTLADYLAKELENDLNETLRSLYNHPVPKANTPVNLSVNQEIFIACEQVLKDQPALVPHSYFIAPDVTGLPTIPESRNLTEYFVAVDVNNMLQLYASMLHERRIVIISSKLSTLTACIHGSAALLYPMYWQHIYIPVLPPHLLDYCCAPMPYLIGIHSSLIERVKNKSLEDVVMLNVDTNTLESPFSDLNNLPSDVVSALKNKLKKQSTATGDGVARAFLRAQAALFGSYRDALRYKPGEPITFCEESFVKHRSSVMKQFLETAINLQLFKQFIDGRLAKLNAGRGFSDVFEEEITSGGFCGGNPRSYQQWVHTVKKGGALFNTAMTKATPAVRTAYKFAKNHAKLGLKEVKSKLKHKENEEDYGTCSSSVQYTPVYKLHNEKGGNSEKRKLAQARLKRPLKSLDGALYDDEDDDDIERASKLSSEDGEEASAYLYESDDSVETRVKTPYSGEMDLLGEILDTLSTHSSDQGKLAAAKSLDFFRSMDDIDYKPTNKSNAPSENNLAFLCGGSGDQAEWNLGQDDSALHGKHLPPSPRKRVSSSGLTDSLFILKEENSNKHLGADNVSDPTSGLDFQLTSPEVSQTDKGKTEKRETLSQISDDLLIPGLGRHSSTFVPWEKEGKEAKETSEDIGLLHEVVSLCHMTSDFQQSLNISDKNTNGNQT
UniProt Q6E0U4: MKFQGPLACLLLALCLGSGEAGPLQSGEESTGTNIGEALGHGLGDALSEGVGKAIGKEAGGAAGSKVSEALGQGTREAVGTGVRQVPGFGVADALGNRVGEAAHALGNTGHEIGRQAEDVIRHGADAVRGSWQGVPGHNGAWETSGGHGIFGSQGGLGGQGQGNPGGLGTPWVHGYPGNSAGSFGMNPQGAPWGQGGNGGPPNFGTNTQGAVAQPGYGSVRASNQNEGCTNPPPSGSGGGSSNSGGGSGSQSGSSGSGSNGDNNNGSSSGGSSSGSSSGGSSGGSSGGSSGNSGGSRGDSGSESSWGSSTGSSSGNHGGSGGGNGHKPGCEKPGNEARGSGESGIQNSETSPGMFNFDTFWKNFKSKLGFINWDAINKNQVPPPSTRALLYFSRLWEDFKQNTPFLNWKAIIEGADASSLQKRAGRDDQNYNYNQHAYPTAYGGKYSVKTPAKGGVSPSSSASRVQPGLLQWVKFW
UniProt Q9H4E7, whole entry, looked up: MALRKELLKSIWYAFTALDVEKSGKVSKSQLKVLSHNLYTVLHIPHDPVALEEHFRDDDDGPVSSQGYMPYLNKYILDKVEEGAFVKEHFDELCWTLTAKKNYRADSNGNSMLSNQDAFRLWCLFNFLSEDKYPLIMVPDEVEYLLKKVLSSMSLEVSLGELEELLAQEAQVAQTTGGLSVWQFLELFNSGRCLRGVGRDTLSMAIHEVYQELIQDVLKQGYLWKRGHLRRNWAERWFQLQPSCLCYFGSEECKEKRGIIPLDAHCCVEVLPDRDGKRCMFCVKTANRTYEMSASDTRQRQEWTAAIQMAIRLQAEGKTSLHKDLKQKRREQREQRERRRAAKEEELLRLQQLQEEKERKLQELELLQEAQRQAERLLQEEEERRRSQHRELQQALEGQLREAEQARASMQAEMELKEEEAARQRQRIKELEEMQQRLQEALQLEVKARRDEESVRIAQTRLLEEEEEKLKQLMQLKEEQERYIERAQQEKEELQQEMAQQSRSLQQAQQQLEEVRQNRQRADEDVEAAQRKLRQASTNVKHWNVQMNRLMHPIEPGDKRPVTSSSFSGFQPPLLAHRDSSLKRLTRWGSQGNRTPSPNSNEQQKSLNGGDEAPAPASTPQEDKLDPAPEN

[2] = compound: CC1=C(SC2=C1C(=N[C@H](C3=NN=C(N32)C)CC(=O)N)C4=CC=C(C=C4)Cl)C
Summary of the method: as §1

[3] = compound: CC1=C2C(=CC=C1)N=C(N(C2=O)C3=CC=CC=C3C)CN4C=NC5=C(N=CN=C54)N
Summary of the method: as §1

[4] = compound: c1ccc([C@@H]2C[C@H]2NC2CCNCC2)cc1
Summary of the method: as §1

[5] = compound: Cc1sc2c(c1C)C(c1ccc(Cl)cc1)=N[C@@H](CC(=O)OC(C)(C)C)c1nnc(C)n1-2
Summary of the method: as §1

Measured: log2 fold change

DENND1B (UniProt Q6P3S1)
inactive: [1] -0.075 | [2] 0.009 | [3] 0.109 | [4] -0.045

DMKN (UniProt Q6E0U4)
inactive: [1] -0.289 | [3] -0.239 | [5] -0.518

DEF6 (UniProt Q9H4E7)
inactive: [2] -0.156 | [5] 0.026 | [4] 0.14
